Experimental findings from paper PMC3338416, “A Chemocentric Approach to the Identification of Cancer Targets” (PLoS ONE, 2012) are described below.

The assay concerns HCT116 cells. The experiment in a line: High-throughput resazurin (Alamar blue) cytotoxicity / antiproliferative assay on tumor HCT116 cells. Type of assay: cell-based, human. As for the experimental part:
A colon adenocarcinoma (HCT116) and normal human lung fibroblast (MRC-5) cell lines were purchased from the American Type Culture Collection (ATCC, Manassas, VA). HCT116 cells were maintained in McCoy's 5a Modified Medium supplemented with 10% FBS, 100 units/ml penicillin, and 100 µg/ml streptomycin at 37°C in a humidified 5% CO2 incubator. Subculturing was done using 1∶5 ratio twice a week. MRC-5 cells were maintained in DMEM supplemented with 10% FBS, 100 units/ml penicillin, and 100 µg/ml streptomycin at 37°C in a humidified 5% CO2 incubator. Subculturing was done using 1∶3 ratio twice a week. […]
The high-throughput in vitro assay for measuring toxicity and antiproliferative effects of small molecules was implemented as described earlier. Cell lines were grown in culture flasks to 90% confluences, then harvested in counted cell density and seeded into 384-well microtiter plates. […] For the transformation of the assay into a high-throughput format, a Beckman Biomek liquid handling system and a Wallac Victor plate reader were used. […] From the dose-response curves, IC50 values were determined and analyzed. To test the reproducibility and robustness of the assay for high-throughput screening, Z′ factors (∼0.72) and S/B ratios (∼10) were determined and the respective plate-to-plate and day-to-day coefficients of variation found to be 5.0%, 2.7%, 1.7% and 5.6%. […]
(In general: Alamar Blue is a resazurin reagent that responds to reducing activity.)

The compound `O=C(CCCCCCC(=O)Nc1ccccc1)NO` [SAHA, suberoylanilide hydroxamic acid] showed an IC50 (Homo sapiens, HCT-116, 48 h incubation, dose-response, six concentrations in duplicate) of 640 nM. Besides, for the setting “IC50(MRC-5)/IC50(HCT116)”, the “fold selectivity relative to the antiproliferative effect on MRC-5 cells” value stood at 781 fold.

As a reminder, the IC50 is the point on the concentration scale where inhibition reaches its midpoint. Low readings indicate higher potency, high ones lower potency.
